# Percent effect of library compounds

Protein sequences, listed by entry. Tags and fused reporters are not part of them. Residues count along the entry.
UniProt P9WPC5, whole entry: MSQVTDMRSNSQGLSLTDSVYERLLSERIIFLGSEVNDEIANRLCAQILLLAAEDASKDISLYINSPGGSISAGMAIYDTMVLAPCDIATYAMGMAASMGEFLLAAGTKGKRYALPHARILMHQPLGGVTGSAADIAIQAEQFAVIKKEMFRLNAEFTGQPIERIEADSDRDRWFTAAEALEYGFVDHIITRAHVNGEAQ
UniProt P9WPC3, whole entry partner: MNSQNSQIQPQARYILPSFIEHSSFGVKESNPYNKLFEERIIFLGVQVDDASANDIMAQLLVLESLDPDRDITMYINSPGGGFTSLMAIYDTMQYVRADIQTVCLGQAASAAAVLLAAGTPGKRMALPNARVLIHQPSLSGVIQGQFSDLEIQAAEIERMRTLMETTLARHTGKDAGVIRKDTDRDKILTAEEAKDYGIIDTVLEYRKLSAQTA
UniProt A4I591, 1-473: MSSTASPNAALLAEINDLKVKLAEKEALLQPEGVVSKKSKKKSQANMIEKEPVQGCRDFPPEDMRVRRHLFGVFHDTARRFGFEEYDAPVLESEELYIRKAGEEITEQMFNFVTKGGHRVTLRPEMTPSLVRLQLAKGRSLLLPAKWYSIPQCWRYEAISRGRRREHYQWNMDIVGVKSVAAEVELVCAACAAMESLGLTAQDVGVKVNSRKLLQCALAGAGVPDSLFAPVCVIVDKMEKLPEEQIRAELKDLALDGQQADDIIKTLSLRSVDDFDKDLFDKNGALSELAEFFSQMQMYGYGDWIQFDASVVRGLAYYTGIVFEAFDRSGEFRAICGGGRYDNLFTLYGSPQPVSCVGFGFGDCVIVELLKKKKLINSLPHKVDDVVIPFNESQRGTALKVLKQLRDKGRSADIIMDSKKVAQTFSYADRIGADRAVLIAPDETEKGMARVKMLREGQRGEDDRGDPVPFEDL

Each number is a percent effect as filed. The record does not define 0% and 100%; most values in the screen are far below 50% and negative numbers occur (in some assays of this library far below -100). This is an unselected part of the compounds tested.

ClpP1P2: 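Protease assay of ClpP1P2, read by the AMC dye that it sets free. Target: ClpP1P2, Mycobacterium tuberculosis (UniProt P9WPC5 and UniProt P9WPC3). Compounds at 50 µM. Higher reads as stronger inhibition, judged from the few compounds that gave an IC50. Most other retested compounds had strongly negative values. Size under these conditions: about 69,000 compounds, about 10 of them at 50% or above in at least one test.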
LiHisRS: 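Enzyme assay of histidyl-tRNA synthetase; the read-out is not stated. Target: Histidine-tRNA ligase, Leishmania infantum (UniProt A4I591). Compounds at 30 µM. The record gives no direction; compounds that gave an IC50 in retests scored well above the rest, so higher reads as stronger inhibition. The assay is labelled LdHisRS but filed under L. infantum. Of about 69,000 compounds tested this way, about 410 (0.6%) reached 50% or more in at least one test.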

| # | Compound | ClpP1P2 | LiHisRS |
|---|---|---|---|
| 1 | `Cc1nn(C)cc1C(=O)N1CCCC(n2cncn2)C1` (stereo not drawn) | -0.5672% | 0% |
| 2 | `O=C(Nc1cnn(CC(=O)N2CCCCO2)c1)c1ccccn1` | -2.017% | -1.408% |
| 3 | `CC(=O)NCc1ccc(-n2ccnc2C)nc1` | 6.272% | 12% |
| 4 | `CC(C)N1CCCC(N2CCOC3(CCCC3)C2)C1=O` (stereo not drawn) | -4.395% | -2.74% |
| 5 | `CCN1CC2(CC1=O)CN(Cc1cnn(C)c1)CCN(C(=O)C(C)C)C2` (stereo not drawn) | 2.643% | 28.85% |
| 6 | `COc1c(C2CCCN2C(=O)c2ccc(C(N)=O)s2)c(C)nn1C` (stereo not drawn) | 3.229% | 4.145% |
| 7 | `CCn1cc(NC(=O)NCc2ccc(CO)c(F)c2)cn1` | -36.02% | 10.26% |
| 8 | `CCN1CCCC(c2c(-c3ccccc3)ncn2CCCO)C1` (stereo not drawn) | 8.259% | -8.824% |
| 9 | `CCN(C(=O)CN1CCN(CC(C)O)CC1)C1=CCCCC1` (stereo not drawn) | -6.691% | 3.665% |
| 10 | `CC(C)NC(=O)CCN1CCCC1c1cccc2c1OCCO2` (stereo not drawn) | -0.02358% | 16.96% |
| 11 | `COc1ccccc1C1(CNCc2ccc([S+](C)[O-])cc2)CC1` (stereo not drawn) | -11.53% | 12.09% |
| 12 | `COc1ccccc1NC(=O)NC1(c2noc(CN(C)C)n2)CCCC1` | -2.134% | 16.33% |
| 13 | `CC(C)Oc1ccc(CNC(=O)CN(C)S(C)(=O)=O)cc1F` | -31.65% | 11.01% |
| 14 | `CC(C)CN1C(=O)c2ccc(C(=O)NCCc3c[nH]cn3)cc2C1=O` | -4.992% | -5.825% |
| 15 | `COCCC(=O)N1C[C@@H](c2ccc(F)c(F)c2)[C@@]2(CCCC(=O)N2)C1` | -3.345% | 5.674% |
| 16 | `CC(C)(C)N1CCN(C(=O)Nc2cc(C(F)(F)F)c[nH]c2=O)CC1` | 0.5098% | 1.923% |
| 17 | `Cc1cccnc1NCCNC(=O)c1cnc(-c2ccccn2)nc1O` | -21.14% | 12.9% |
| 18 | `Cc1cc2n(n1)CC(CNCc1cc(C)on1)CN2` (stereo not drawn) | -5.911% | 10% |
| 19 | `CCS(=O)(=O)N1CCC2(CCCC(=O)N2C)CC1` | -9.318% | 9.709% |
| 20 | `COCCn1c2c(ccc1=O)CCN(C(=O)Cc1ccsc1)CC2` | 3.727% | 15.38% |
| 21 | `N#Cc1nc(COc2ccc3c(c2)OCO3)oc1NC1CCCCC1` | -9.923% | -5.263% |
| 22 | `NC(=O)CN1CCCCC1c1ccc(-n2ccnc2)nc1` (stereo not drawn) | -0.484% | 7.042% |
| 23 | `CC(C)(CNC(=O)Nc1cccc(-c2cccs2)c1)C(N)=O` | -2.147% | 8.219% |
| 24 | `O=C(CCCc1cn[nH]c1)N1CCOCC(O)C1` (stereo not drawn) | -7.175% | 23.08% |
| 25 | `CC(=O)N1N=C(c2ccccc2)OC1C(=O)NCCc1ccc(O)cc1` (stereo not drawn) | -0.2764% | 13.86% |
| 26 | `Cc1ccc(CN2C[C@@H]3COC[C@H](NS(C)(=O)=O)[C@@H]3C2)s1` | -20.45% | 0% |
| 27 | `Cc1cnccc1NCCNC1CCSCC1` | -7.476% | 17.07% |
| 28 | `CN1C(=O)CC(c2ccccc2)C12CCN(C(=O)c1ccc[nH]1)CC2` (stereo not drawn) | 8.857% | 8.772% |
| 29 | `COCCNC(=O)N1CCCCC1CNC(=O)Nc1ccccc1` (stereo not drawn) | 2.942% | 19.35% |
| 30 | `CCc1ccccc1CN1CC[C@@]2(O)CCN(S(=O)(=O)N(C)C)C[C@H]2C1` | -16.64% | 16.87% |
| 31 | `CCN1CCN(C(=O)c2cn(Cc3ccccc3)c3ncccc23)CC1` | -7.42% | 17.82% |
| 32 | `Cc1cccn2c(=O)cc(OC(=O)c3ccc(OC(C)C)cc3)nc12` | -15.89% | 0% |
| 33 | `CN(C)C(=O)N1CCC2(CC1)CNc1ccc(F)cc12` | -2.984% | 4.274% |
| 34 | `Cn1ccc(CN2CCC(CCc3ccc(O)cc3)CC2)cc1=O` | 14.19% | 24.32% |
| 35 | `Cc1ccccc1-n1nc(C)c(CN(C)C(C)Cc2ccccn2)c1C` (stereo not drawn) | -10.45% | -1.408% |
| 36 | `CCN1CC(=O)NCC12CCN(C(=O)c1ccno1)C2` (stereo not drawn) | 6.294% | 15.53% |
| 37 | `Cc1cc(C)n(CC2CCCN2C(=O)c2ccc3c(c2)OCCO3)n1` (stereo not drawn) | -11.23% | 10.84% |
| 38 | `CC(C)C1CN(c2nccc(N)n2)CCC(=O)N1Cc1ccc(F)cc1` (stereo not drawn) | 1.326% | 9.589% |
| 39 | `Cn1cnnc1C1CCCN(C(=O)NCc2ccc3c(c2)OCO3)C1` (stereo not drawn) | -0.6569% | 13.33% |
| 40 | `O=C(c1cc(Cn2cnc3ccccc32)on1)N1CCOCC1` | 11.52% | 36% |
| 41 | `COCCN1C(=O)[C@H]2CC[C@@H]1CN(c1nccc(C3CCCC3)n1)C2` | -6.32% | 15.62% |
| 42 | `CC1(C)CCC(CC(=O)O)c2ccccc21` (stereo not drawn) | 5.633% | 14.04% |
| 43 | `CCc1ccc(CN2CCOC(Cc3cccc(F)c3)C2)nc1` (stereo not drawn) | -28.9% | 14.16% |
| 44 | `CCC(C)(N)c1nc(=O)c(C)c(C)[nH]1` (stereo not drawn) | -1.839% | 26.47% |
| 45 | `CC(C)CN1C[C@H]2C[C@H](C(=O)N3CCCC3)[C@@H](C1)O2` | -7.77% | 13.21% |
| 46 | `CCOCCn1nc(C)cc1C(=O)N1CC[C@@](O)(COC)C(C)(C)C1` | -15.62% | 8.8% |
| 47 | `O=C(Nc1cccc(C(F)F)c1)N[C@@H]1C=C[C@H](CO)C1` | -7.84% | 4.762% |
| 48 | `CNc1cc(C(=O)N2CCC3(CC2)Nc2ccccc2NC3=O)ccn1` | -3.269% | 20% |
| 49 | `Cn1cnnc1S(=O)(=O)C1CCN(S(=O)(=O)c2c(Cl)cccc2Cl)CC1` | -4.686% | 7.692% |
| 50 | `CC(=O)Nc1cc(C(C)(C)C)sc1C#N` | 1.629% | 10% |
| 51 | `CC(C)c1nnc2n1CCN(CC(=O)Nc1nncs1)C2` | 1.163% | 18.67% |
| 52 | `CNC(=O)c1cc2ccccc2n1C` | -13.19% | -1.98% |
| 53 | `O=C(C1CCCC1)N1CCOC(c2nc(-c3ncccn3)no2)C1` (stereo not drawn) | 3.502% | 15.62% |
| 54 | `O=C(C1CCC1)N1CCC2(CCN(Cc3cccc(F)c3)CC2)CC1` | 8.657% | -5.556% |
| 55 | `CS(=O)(=O)N[C@@H]1CN(Cc2ccoc2)C[C@@H]2CCCO[C@@H]21` | -12.34% | 17.14% |
| 56 | `c1ccc(-c2nnc(CN3CCCC(Cn4cncn4)C3)o2)cc1` (stereo not drawn) | -20% | 17.59% |
| 57 | `C[C@H]1CN(c2ccccn2)C[C@@]12CCN(c1cccnc1)C2=O` | -11.87% | 11.32% |
| 58 | `CC(C)C(=O)Nc1ccc(Oc2ccc3c(c2)OCO3)nc1` | -2.574% | 17.39% |
| 59 | `CCCc1cc(C(=O)N2Cc3ccccc3C2)[nH]n1` | 9.12% | 6.452% |
| 60 | `COCCN1C[C@@H]2CN(S(=O)(=O)c3cccs3)C[C@@H]2C1=O` | -15.68% | 13.59% |
| 61 | `O[C@H]1[C@H](NCCSc2ccccn2)c2ccccc2C12CCNCC2` | -8.953% | 26.67% |
| 62 | `Cc1cccc2c1C(=O)NC1(CCOCC1)N2` | -53.2% | 10.53% |
| 63 | `COCCN1CCCC(c2nc(C)n3c(C)c(C)sc23)C1` (stereo not drawn) | -1.102% | 24.21% |
| 64 | `Cn1ccnc1CN1CCC2(CC1)CCN(Cc1ccoc1)C2` | 8.945% | 22.86% |
| 65 | `O=C(c1ccc(-n2cccn2)nc1)N1CCC(c2ccc(O)cc2)CC1` | -6.682% | 3.968% |
| 66 | `CC(NC(=O)CNC(=O)OC(C)(C)C)c1ccc(Cl)s1` (stereo not drawn) | -10.64% | 30.14% |
| 67 | `CN(C)c1cc(CNC(=O)Nc2ccc(N3CCCC3)nc2)ccn1` | -66.94% | 10.19% |
| 68 | `CCOc1ncccc1C(=O)NC1CCCN(c2ncccn2)C1` (stereo not drawn) | -9.56% | 13.68% |
| 69 | `Cc1ccc(NC(=O)NCC2(O)CCCC2)cc1C` | -2.348% | 29.27% |
| 70 | `COc1cc(CNCc2c(C)nn(C)c2N(C)C)ccc1C` | 5.069% | 16.67% |
| 71 | `CSC(C)C(=O)NCCCc1cc(N)n(-c2ccccc2)n1` (stereo not drawn) | -8.219% | -1.923% |
| 72 | `Cc1csc(N2CCN(C(=O)CCCNc3ncccn3)CC2)n1` | -25.52% | 9.649% |
| 73 | `Cc1cnn(CC2CCCN2Cc2coc(-c3cccc(F)c3)n2)c1` (stereo not drawn) | -25.43% | 22.22% |
| 74 | `CC(C)OCCNC1(c2ccc(Cl)cc2)CCOCC1` | -10.37% | 8.219% |
| 75 | `NC(=O)c1ccc(CN2CCCC(N3CCCCCC3)C2)cc1` (stereo not drawn) | -21.49% | 24.71% |
| 76 | `CCNC(=O)NCCCn1nc2ccccn2c1=O` | -17.93% | 7.895% |
| 77 | `O=C(c1nc(-c2ccc3cc[nH]c3c2)no1)N1CCCC1` | 4.919% | 5.825% |
| 78 | `COc1ccc(CN(C)c2ccc(-c3nccn3C)nn2)cc1OC` | -6.31% | 8.333% |
| 79 | `Cc1cnc(N)nc1NCCSCc1[nH]cnc1C` | -1.334% | 6.452% |
| 80 | `O=C(c1ccc(N2CCCC2)nn1)N1CCCc2ccc(F)cc21` | 2.264% | 14.29% |

Repeated from the top, 6 entries:

Compound,ClpP1P2,LiHisRS
Cc1nn(C)cc1C(=O)N1CCCC(n2cncn2)C1 (stereo not drawn),-0.5672%,0%
O=C(Nc1cnn(CC(=O)N2CCCCO2)c1)c1ccccn1,-2.017%,-1.408%
CC(=O)NCc1ccc(-n2ccnc2C)nc1,6.272%,12%
CC(C)N1CCCC(N2CCOC3(CCCC3)C2)C1=O (stereo not drawn),-4.395%,-2.74%
CCN1CC2(CC1=O)CN(Cc1cnn(C)c1)CCN(C(=O)C(C)C)C2 (stereo not drawn),2.643%,28.85%
COc1c(C2CCCN2C(=O)c2ccc(C(N)=O)s2)c(C)nn1C (stereo not drawn),3.229%,4.145%

Source: ChEMBL document CHEMBL3988442, “University of Dundee, Small-Polar-MMV Screening Library” (2021).